Assay results from PubChem BioAssay AID504834 (National Center for Advancing Translational Sciences (NCATS), 2011).
Hit rate of the full screen: of about 320,000 compounds, about 22,000 (6.9%) were called active. The shares of active, inactive and inconclusive entries below differ from those in the screen. Calls come from the whole dose curve; as a rule, active = well fitted inhibition curve with a large enough effect; inconclusive = small, poorly fitted or top-dose-only effect, or another doubt; inactive = no such curve, though single readings can be large or run the other way. Where the call is inconclusive, the potency comes from a doubtful curve fit.

assay: Primary qHTS for delayed death inhibitors of the malarial parasite plastid, 96 hour incubation; details: P. falciparum luciferase reporter growth; series mostly up to 28.7 µM
Outline: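 P. falciparum expressing integrated firefly luciferase, in erythrocytes at 2% hematocrit, 0.05% parasitemia, incubated with compounds 96 h at 37 C, 5% CO2. Growth inhibition read as loss of luminescence; two-generation exposure targets delayed-death apicoplast inhibitors.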
% is set by controls: 0 for no effect and ±100 for the full control effect; potency is the fitted concentration of half-maximal effect.

Row | SMILES | Potency | activity change, negative = inhibition
1 | CCCCCCn1nc(C(=O)Nc2nc3c(s2)CCCC3)c2ccccc2c1=O | inconclusive: 4.15 µM [inhibitor, partial curve, poor fit] | 
2 | O=C(NC1CCCCC1)C(c1ccncc1)N(Cc1ccc2c(c1)OCO2)C(=O)C(F)(F)F (stereo not given) | active: 2.08 µM | 
3 | CNC(=O)c1sc(NCc2ccccc2OC)nc1C | inactive | 
4 | Cc1ccc(-c2cnc(NCc3cc4c(cc3[N+](=O)[O-])OCO4)n2C)cc1C | inconclusive: 18.5 µM [inhibitor, partial curve, poor fit] | 
5 | N#C/C(=C\c1cn(CC(=O)N2CCCCC2)c2ccccc12)C(=O)NCc1ccc2c(c1)OCO2 | inconclusive: 16.5 µM [inhibitor, single point] | 
6 | CCCCCCCCc1c(O)nc(-n2[nH]c(C)c(CCO)c2=O)[nH]c1=O | inconclusive: 1.17 µM [inhibitor, partial curve, poor fit] | 
7 | COC(=O)c1c(NC(=O)c2c(-c3ccccc3Cl)noc2C)sc2c1CCC2 | active: 2.08 µM | 
8 | Cc1ccccc1OCCCCn1cnc2ccccc21 | inactive | 
9 | CC(C)N1C(=O)S/C(=C/c2ccc3c(c2)n(C)c(=O)n3C)C1=O | inconclusive: 1.17 µM [inhibitor, partial curve, poor fit] | 
10 | CC1(C)NC(=O)N(CC(O)CN(c2ccccc2)S(=O)(=O)c2ccc([N+](=O)[O-])cc2)C1=O (stereo not given) | inactive | 
11 | Cc1ccc2cc3cc(C(=O)NCCCN4CCCCCC4)oc3nc2c1 | inconclusive: 18.5 µM [inhibitor, partial curve, poor fit] | 
12 | Nc1ccccc1Nc1cc(-c2ccccc2)nn1-c1ccccc1 | inconclusive: 18.5 µM [inhibitor, single point] | 
13 | O=C1CSC(c2ccccc2Cl)N1 (stereo not given) | inactive | 
14 | CN(C)/C(=N\OC(=O)c1ccccc1)c1nonc1N | inconclusive: 4.15 µM [inhibitor, partial curve, poor fit] | 
15 | Cc1ccc(NC(=O)c2cccc(S(=O)(=O)N3CCCCC3)c2)cc1 | inconclusive: 11.7 µM [inhibitor, single point] | 
16 | Cn1c(SCC(=O)c2ccc3c(c2)OCCO3)nnc1C1CC1 | inconclusive: 1.04 µM [inhibitor, partial curve, poor fit] | 
17 | CN(Cc1ccccc1)c1ccc([N+](=O)[O-])cc1C(=O)O | inactive | 
18 | O=C(CSc1nc(O)cc(=O)n1-c1ccccc1)Nc1nc2ccccc2s1 | inactive | 
19 | NC(=O)c1c(NC(=O)c2ccc([N+](=O)[O-])o2)sc2c1CCCC2 | inactive | 
20 | O=C(CN1C(=O)c2ccc([N+](=O)[O-])cc2C1=O)Nc1nccs1 | inconclusive: 3.29 µM [inhibitor, full curve, poor fit] | 
21 | O=C(Nc1ccncc1)c1ccc(Cl)c(S(=O)(=O)N2CCCCC2)c1 | active: 1.85 µM | 
22 | CC(C)(C)c1ccc(/C=N/NC(=O)c2ccccn2)cc1 | inconclusive: 8.28 µM [inhibitor, partial curve] | 
23 | CC(C)Oc1cccc(C(=O)C2CCCN(Cc3cccn3-c3cccnc3)C2)c1 (stereo not given) | active: 11.7 µM | 
24 | Nc1ccccc1-c1nnn(CC(=O)N2CCCc3ccccc32)n1 | inactive | 

Row | SMILES | Potency | activity change, negative = inhibition
25 | CC(C)N1CCN(Cc2cccn2-c2nccs2)CC1CCO (stereo not given) | inconclusive: 13.1 µM [inhibitor, partial curve, poor fit] | 
26 | Cc1ccc(NC(=O)CSc2ccc(-c3cccnc3)nn2)c(C)c1 | inconclusive: 5.86 µM [inhibitor, partial curve] | 
27 | CCN=C1S/C(=C\c2cn(CC)c3ccccc23)C(=O)N1CC | inconclusive: 18.5 µM [inhibitor, single point] | 
28 | Cc1ccc(C(=O)NC(C)c2ccc(-n3ccnc3)cc2)c(C)c1 (stereo not given) | inconclusive: 18.5 µM [inhibitor, single point] | 
29 | COC(=O)COc1ccccc1C(=O)Nc1ccc(OC)cc1 | inconclusive: 10.4 µM [inhibitor, single point] | 
30 | CCOc1ccc(C(CC(=O)O)NC(=O)COc2ccccc2)cc1 (stereo not given) | active: 10.4 µM | 
31 | Cc1occc1C(=O)N/N=C/c1sc(N2CCOCC2)nc1-c1ccccc1 | inconclusive: 13.1 µM [inhibitor, partial curve, poor fit] | 
32 | CC1Sc2ccc(S(=O)(=O)N3CCN(c4cccc(Cl)c4)CC3)cc2NC1=O (stereo not given) | active: 11.7 µM | 
33 | CC1CC(=O)Nc2ccccc2N1C(=O)CN1CCN(C=O)CC1 (stereo not given) | inconclusive: 2.94 µM [inhibitor, single point] | 
34 | CN(c1ccc(OCC(=O)N2CCOCC2)cc1)S(=O)(=O)c1ccc(F)cc1 | inconclusive: 4.15 µM [inhibitor, single point] | 
35 | CCOc1ccc(NC2c3ccccc3C(=O)N2Cc2ccco2)cc1 (stereo not given) | inconclusive: 18.5 µM [inhibitor, single point] | 
36 | COc1ccc(CCNC(=O)C(=O)NCC2CCCO2)cc1 (stereo not given) | active: 4.15 µM | 
37 | COc1ccc(N(CC(=O)NCc2ccccc2)S(=O)(=O)c2c(C)nn(C)c2C)cc1 | inactive | 
38 | COc1ccc(C(=O)C2CCCN(C(=O)c3cc4nc(C)cc(C)n4n3)C2)cc1F (stereo not given) | inconclusive: 16.5 µM [inhibitor, partial curve, poor fit] | 
39 | CCN(CC)c1ccc(/C=N/Nc2nc(C)cc(C)n2)c(O)c1 | inconclusive: 3.7 µM [inhibitor, full curve, poor fit] | 
40 | CC(C)(C)NC(=O)c1ccc(NC(=O)C2COc3ccccc3O2)cc1 (stereo not given) | inconclusive: 0.828 µM [inhibitor, full curve, poor fit] | 
41 | O=C(Nc1cnn(Cc2ccc(F)cc2)c1)c1noc2c1CCCC2 | inconclusive: 3.7 µM [inhibitor, partial curve] | 
42 | COc1ccc(NC(=O)CN(C)C(=O)c2cn(-c3ccccc3)nc2-c2ccc(OC)cc2)cc1 | inconclusive: 13.1 µM [inhibitor, single point] | 
43 | CC(C)CNC(=O)c1cccc(NC(=O)c2ccccc2-c2ccccc2C(=O)O)c1 | inconclusive: 11.7 µM [inhibitor, single point] | 
44 | COCCn1nnnc1CN(CCc1ccccc1)Cc1cc2ccc(C)cc2[nH]c1=O | active: 10.4 µM | 
45 | CCOc1cc(NC(=S)Nc2ccccc2)c(OCC)cc1NC(=O)c1ccc(OC)cc1 | inconclusive: 0.0208 µM [inhibitor, partial curve, poor fit] | 
46 | O=S(=O)(c1ccc(S(=O)(=O)N2CCCC2)cc1)N1CCCCCC1 |  | inactive: -1.67% [at 5.75 µM]
47 | Cc1cc(C)cc(-n2ncc3c2CCCC3NC(=O)CCN2CCCC2=O)c1 (stereo not given) | inconclusive: 11.7 µM [inhibitor, single point] | 
48 | O=[N+]([O-])c1ccccc1-c1ccc(C(=S)N2CCCCC2)o1 | inactive | 

Row | SMILES | Potency | activity change, negative = inhibition
49 | CCCC(=O)Nc1c2c(nn1-c1ccc(C)cc1C)CSC2 | inactive | 
50 | CCC[C@@H]1C[C@@H](C(=O)N[C@@H]([C@H]2O[C@H](SC)[C@H](O)[C@@H](O)[C@H]2O)[C@@H](C)O)N(C)C1 | active: 0.169 µM | 
51 | Cc1nnc(NC(=O)NCN2C(=O)C3C4C=CC(C4)C3C2=O)s1 (stereo not given) | active: 3.7 µM | 
52 | CC1Cc2ccccc2N1C(=O)c1ccc2nccnc2c1 (stereo not given) | inconclusive: 18.5 µM [inhibitor, single point] | 
53 | COc1ccc(NS(=O)(=O)c2cccc(NC(=O)CCC(=O)c3cccs3)c2)cc1 | inconclusive: 0.0029 µM [inhibitor, full curve, poor fit] | 
54 | NC(=O)c1ccsc1NC(=O)CSc1ccccc1F | active: 9.28 µM | 
55 | COc1ccc(N2CCN(C(CNC(=O)C(C)(C)C)c3ccco3)CC2)cc1 (stereo not given) | inconclusive: 0.0147 µM [inhibitor, full curve, poor fit] | 
56 | Cc1ccc(S(=O)(=O)[N-]c2nc3ccccc3nc2-[n+]2cc(C)cc(C)c2)cc1 | inactive | 
57 | CC1=NN(C(=O)c2ccccc2F)C(O)(c2ccc(Cl)cc2)C1 (stereo not given) | active: 13.1 µM | 
58 | CC1CCCCN1C(=S)NCc1ccccc1 (stereo not given) | inactive | 
59 | CNC(=O)Nc1ccc2snnc2c1 | active: 11.7 µM | 
60 | Clc1ccc(-c2csc(N/N=C/c3ccc4c(c3)OCO4)n2)cc1 | inconclusive: 11.7 µM [inhibitor, single point] | 
61 | COc1ccc(/C=C(\C#N)C(=O)NCc2ccccc2)cc1 | inconclusive: 1.04 µM [inhibitor, partial curve] | 
62 | C=CCN1CC[C@]23c4c5ccc(O)c4O[C@H]2C(=O)CC[C@@]3(O)[C@H]1C5 | inactive | 
63 | Cn1c(=O)[nH]c(=O)c2c1nc(CN1CCN(c3ccc(F)cc3)CC1)n2CCc1ccccc1 | active: 10.4 µM | 
64 | CCOC(=O)c1c(NC(=O)Cc2ccccc2)sc2c1CCN(CC)C2 | inconclusive: 1.04 µM [inhibitor, partial curve, poor fit] | 
65 | Cc1cccc(Nc2nc(N)c([N+](=O)[O-])c(NCc3ccccc3)n2)c1 | inconclusive: 16.5 µM [inhibitor, single point] | 
66 | CCOC(=O)c1c(C)[nH]c(C)c1S(=O)(=O)N1CCN(c2ccc([N+](=O)[O-])cc2)CC1 | inactive | 
67 | CCOC(=O)c1ccc(N2C(=O)CC(N3CCC(O)(c4ccc(Br)cc4)CC3)C2=O)cc1 (stereo not given) | inactive | 
68 | Cc1cnc(C(=O)OCC(=O)Nc2cc(S(=O)(=O)N3CCCCC3)ccc2Cl)cn1 | inconclusive: 18.5 µM [inhibitor, single point] | 
69 | Cc1ccc(-c2ccnc3nc(-n4cccc4)nn23)o1 | inactive | 
70 | Cc1cnc(C)c(N2CCN(Cc3nc(-c4cccc(F)c4F)oc3C)CC2)n1 | inconclusive: 16.5 µM [inhibitor, single point] | 

6 of the compounds above, as tab-separated lines.
Row	SMILES	Potency	activity change, negative = inhibition
54	NC(=O)c1ccsc1NC(=O)CSc1ccccc1F	active: 9.28 µM	
58	CC1CCCCN1C(=S)NCc1ccccc1 (stereo not given)	inactive	
62	C=CCN1CC[C@]23c4c5ccc(O)c4O[C@H]2C(=O)CC[C@@]3(O)[C@H]1C5	inactive	
63	Cn1c(=O)[nH]c(=O)c2c1nc(CN1CCN(c3ccc(F)cc3)CC1)n2CCc1ccccc1	active: 10.4 µM	
64	CCOC(=O)c1c(NC(=O)Cc2ccccc2)sc2c1CCN(CC)C2	inconclusive: 1.04 µM [inhibitor, partial curve, poor fit]	
65	Cc1cccc(Nc2nc(N)c([N+](=O)[O-])c(NCc3ccccc3)n2)c1	inconclusive: 16.5 µM [inhibitor, single point]	
